For test [1], the target named is T1, endogenous TAK1 (HEK293T) (human (endogenous in HEK293T)) (UniProt O43318).
T1 sequence: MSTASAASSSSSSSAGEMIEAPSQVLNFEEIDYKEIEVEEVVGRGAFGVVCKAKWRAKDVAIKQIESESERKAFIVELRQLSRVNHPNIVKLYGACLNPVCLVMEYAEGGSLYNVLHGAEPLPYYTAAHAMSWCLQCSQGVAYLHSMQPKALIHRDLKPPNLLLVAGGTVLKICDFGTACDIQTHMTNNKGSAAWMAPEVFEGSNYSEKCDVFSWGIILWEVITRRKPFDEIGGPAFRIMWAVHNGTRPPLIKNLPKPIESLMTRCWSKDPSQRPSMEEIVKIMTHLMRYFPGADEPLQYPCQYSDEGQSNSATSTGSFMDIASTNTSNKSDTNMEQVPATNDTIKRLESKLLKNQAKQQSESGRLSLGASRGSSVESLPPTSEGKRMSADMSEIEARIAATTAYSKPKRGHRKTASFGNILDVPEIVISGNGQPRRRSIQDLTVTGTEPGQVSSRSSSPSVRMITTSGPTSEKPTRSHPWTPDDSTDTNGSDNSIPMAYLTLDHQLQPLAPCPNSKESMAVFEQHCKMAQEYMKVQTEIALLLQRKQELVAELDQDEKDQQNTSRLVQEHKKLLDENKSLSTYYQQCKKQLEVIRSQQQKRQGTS
The experiment in a line: co-IP; endogenous proteins; HEK293T or RAW264.7 cells, 800 nM RA-V for 6 h, then 10 ng/mL TNF-α for 2 h or 1 μg/mL LPS for 3 h; lysates immunoprecipitated with TAK1 antibody or control IgG, immunoblot. A general note: In western blotting, separated proteins are transferred to a membrane and probed.

Test [2] addresses T2, endogenous TAK1 (RAW264.7) (mouse (endogenous in RAW264.7)) (UniProt Q62073).
T2 sequence: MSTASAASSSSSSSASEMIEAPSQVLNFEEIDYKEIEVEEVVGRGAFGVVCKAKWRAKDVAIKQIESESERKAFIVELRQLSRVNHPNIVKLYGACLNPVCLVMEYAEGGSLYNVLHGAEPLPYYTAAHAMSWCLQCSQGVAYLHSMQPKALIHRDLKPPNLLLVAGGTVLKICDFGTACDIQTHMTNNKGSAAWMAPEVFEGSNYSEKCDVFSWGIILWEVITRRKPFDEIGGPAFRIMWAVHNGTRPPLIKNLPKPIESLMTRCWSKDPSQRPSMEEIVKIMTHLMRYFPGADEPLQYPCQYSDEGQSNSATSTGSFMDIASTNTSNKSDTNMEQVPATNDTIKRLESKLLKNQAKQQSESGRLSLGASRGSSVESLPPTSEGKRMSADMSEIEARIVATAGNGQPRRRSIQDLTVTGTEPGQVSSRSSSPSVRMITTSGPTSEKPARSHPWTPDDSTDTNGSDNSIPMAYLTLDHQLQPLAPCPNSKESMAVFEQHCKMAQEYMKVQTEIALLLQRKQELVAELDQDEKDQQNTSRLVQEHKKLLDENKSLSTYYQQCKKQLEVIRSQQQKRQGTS
Described as above.

Test [3] concerns the target T3, HA-TAB1 (TAK1-binding protein 1) (UniProt Q15750).
T3 sequence: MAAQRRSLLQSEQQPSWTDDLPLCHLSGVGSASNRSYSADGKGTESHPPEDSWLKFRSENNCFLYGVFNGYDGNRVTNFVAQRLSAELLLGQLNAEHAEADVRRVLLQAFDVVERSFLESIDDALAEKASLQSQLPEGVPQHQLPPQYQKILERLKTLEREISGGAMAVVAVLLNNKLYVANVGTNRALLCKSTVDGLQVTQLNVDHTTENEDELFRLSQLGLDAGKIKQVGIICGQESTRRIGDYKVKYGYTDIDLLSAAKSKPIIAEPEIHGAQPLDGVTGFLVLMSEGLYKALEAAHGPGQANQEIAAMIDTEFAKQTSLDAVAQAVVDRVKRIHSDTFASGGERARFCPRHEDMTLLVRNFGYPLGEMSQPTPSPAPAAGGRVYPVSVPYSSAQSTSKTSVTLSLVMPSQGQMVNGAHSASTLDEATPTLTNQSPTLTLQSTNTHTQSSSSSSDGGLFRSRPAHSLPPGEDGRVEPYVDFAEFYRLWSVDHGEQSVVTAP
Put plainly: co-IP; HEK293T cells transfected with Flag-TAK1 and HA-TAB2, HA-TAB1 or HA-TRAF6 for 24 h, then RA-V for 6 h (various concentrations, or 800 nM); RIPA lysates immunoprecipitated with HA antibody, immunoblot.

For test [4], the target named is T4, HA-TAB2 (TAK1-binding protein 2) (UniProt Q9NYJ8).
T4 sequence: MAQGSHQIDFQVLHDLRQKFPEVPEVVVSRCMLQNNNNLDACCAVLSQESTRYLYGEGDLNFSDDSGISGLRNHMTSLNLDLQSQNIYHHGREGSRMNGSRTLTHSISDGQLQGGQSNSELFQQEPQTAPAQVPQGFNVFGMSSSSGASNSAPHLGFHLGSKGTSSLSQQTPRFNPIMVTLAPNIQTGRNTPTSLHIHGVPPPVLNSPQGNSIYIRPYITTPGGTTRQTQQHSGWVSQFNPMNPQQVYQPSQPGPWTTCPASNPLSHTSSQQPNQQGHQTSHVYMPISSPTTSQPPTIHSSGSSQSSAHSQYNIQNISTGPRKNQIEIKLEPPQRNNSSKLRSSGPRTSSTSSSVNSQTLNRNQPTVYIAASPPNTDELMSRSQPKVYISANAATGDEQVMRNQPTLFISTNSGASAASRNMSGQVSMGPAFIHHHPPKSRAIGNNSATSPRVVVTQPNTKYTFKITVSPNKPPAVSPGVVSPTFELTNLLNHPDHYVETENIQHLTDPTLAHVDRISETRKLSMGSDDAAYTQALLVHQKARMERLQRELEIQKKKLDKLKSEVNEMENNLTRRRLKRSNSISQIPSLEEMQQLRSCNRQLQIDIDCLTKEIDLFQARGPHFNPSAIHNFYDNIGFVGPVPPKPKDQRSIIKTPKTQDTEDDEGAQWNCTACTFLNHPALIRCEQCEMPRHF
The description is as above.

These are yes or no findings as the source states them, for the method shown. In cells and extracts the contact can be indirect. Some binding calls cover weakened binding; strength is not graded here. For some of these results: Sequences can lack the tags named with a protein.

Here are results for three molecules from publication PMC6006164, “Natural cyclopeptide RA-V inhibits the NF-κB signaling pathway by targeting TAK1” (Cell Death & Disease, 2018).

B1: endogenous TAB2 (HEK293T) (protein, UniProt Q9NYJ8 1-693)
chain: MAQGSHQIDFQVLHDLRQKFPEVPEVVVSRCMLQNNNNLDACCAVLSQESTRYLYGEGDLNFSDDSGISGLRNHMTSLNLDLQSQNIYHHGREGSRMNGSRTLTHSISDGQLQGGQSNSELFQQEPQTAPAQVPQGFNVFGMSSSSGASNSAPHLGFHLGSKGTSSLSQQTPRFNPIMVTLAPNIQTGRNTPTSLHIHGVPPPVLNSPQGNSIYIRPYITTPGGTTRQTQQHSGWVSQFNPMNPQQVYQPSQPGPWTTCPASNPLSHTSSQQPNQQGHQTSHVYMPISSPTTSQPPTIHSSGSSQSSAHSQYNIQNISTGPRKNQIEIKLEPPQRNNSSKLRSSGPRTSSTSSSVNSQTLNRNQPTVYIAASPPNTDELMSRSQPKVYISANAATGDEQVMRNQPTLFISTNSGASAASRNMSGQVSMGPAFIHHHPPKSRAIGNNSATSPRVVVTQPNTKYTFKITVSPNKPPAVSPGVVSPTFELTNLLNHPDHYVETENIQHLTDPTLAHVDRISETRKLSMGSDDAAYTQALLVHQKARMERLQRELEIQKKKLDKLKSEVNEMENNLTRRRLKRSNSISQIPSLEEMQQLRSCNRQLQIDIDCLTKEIDLFQARGPHFNPSAIHNFYDNIGFVGPVPPKPKDQRSIIKTPKTQDTEDDEGAQWNCTACTFLNHPALIRCEQCEMPRHF
Take B1: in test [1], the binding entry is reported as “binds”.

B2: endogenous TAB2 (RAW264.7) (protein, UniProt Q99K90 1-693)
chain: MAQGSHQIDFQVLHDLRQKFPEVPEVVVSRCMLQNNNNLDACCAVLSQESTRYLYGEGDLNFSDESGISGLRNHMTSLNLDLQSQNVYHHGREGSRVNGSRTLTHSVSDGQLHGGQSNNELFQQEPQTAPAQVPQGFNVFGMPSTSGASNSTPHLGFHLGSKGTSNLSQQTPRFNPIMVTLAPNIQTGRSTPTSLHIHGVPPPVLNSPQGNSIYIRPYITTPSGTARQTQQHSGWVSQFNPMNPQQAYQPSQPGPWTTYPASNPLPHTSTQQPNQQGHQTSHVYMPISSPTTPQPPTIHSSGSSQSSAHSQYNIQNISTGPRKNQIEIKLEPPQRNSSSKLRSSGPRTASTSSLVNSQTLNRNQPTVYIAASPPNTDEMISRSQPKVYISANATAGDEQGMRNQPTLFISTNSGPSAASRNMSGQVSMGPAFIHHHPPKSRVLGGNSATSPRVVVTQPNTKYTFKITVSPNKPPAVSPGVVSPTFELTNLLNHPDHYVETENIQHLTDPALAHVDRISEARKLSMGSDDAAYTQALLVHQKARMERLQRELEMQKKKLDKLKSEVNEMENNLTRRRLKRSNSISQIPSLEEMQQLRSCNRQLQIDIDCLTKEIDLFQARGPHFNPSAIHNFYDNIGFVGPVPPKPKDQRSTIKAPKTQDAEDEEGAQWNCTACTFLNHPALIRCEQCEMPRHF
Consider B2, for which, in test [2], the binding result is reported as “binds”.

B3: Flag-TAK1 (transforming growth factor beta-activated kinase 1) (enzyme, UniProt O43318 1-606)
chain: MSTASAASSSSSSSAGEMIEAPSQVLNFEEIDYKEIEVEEVVGRGAFGVVCKAKWRAKDVAIKQIESESERKAFIVELRQLSRVNHPNIVKLYGACLNPVCLVMEYAEGGSLYNVLHGAEPLPYYTAAHAMSWCLQCSQGVAYLHSMQPKALIHRDLKPPNLLLVAGGTVLKICDFGTACDIQTHMTNNKGSAAWMAPEVFEGSNYSEKCDVFSWGIILWEVITRRKPFDEIGGPAFRIMWAVHNGTRPPLIKNLPKPIESLMTRCWSKDPSQRPSMEEIVKIMTHLMRYFPGADEPLQYPCQYSDEGQSNSATSTGSFMDIASTNTSNKSDTNMEQVPATNDTIKRLESKLLKNQAKQQSESGRLSLGASRGSSVESLPPTSEGKRMSADMSEIEARIAATTAYSKPKRGHRKTASFGNILDVPEIVISGNGQPRRRSIQDLTVTGTEPGQVSSRSSSPSVRMITTSGPTSEKPTRSHPWTPDDSTDTNGSDNSIPMAYLTLDHQLQPLAPCPNSKESMAVFEQHCKMAQEYMKVQTEIALLLQRKQELVAELDQDEKDQQNTSRLVQEHKKLLDENKSLSTYYQQCKKQLEVIRSQQQKRQGTS
In the case of B3, the binding entry in test [3] and in test [4] was “binds” each time.
